Experimental data taken from PubChem BioAssay AID1347075 (National Center for Advancing Translational Sciences (NCATS), 2019).
The campaign covered roughly 400,000 compounds. About 5,500 (1.4%) were called active. Inconclusive results, whose numbers are uncertain, are shown with a selection of clear calls. The call rests on the fitted dose curve; in most records, active means well fitted cell-killing curve with a large enough effect; inconclusive means small, poorly fitted or top-dose-only effect, or effect the other way; inactive means flat fitted curve, though single readings scatter. Where the call is inconclusive, the potency comes from a doubtful curve fit.

Experiment: qHTS assay for MDR1-selective chemotherapeutics: Primary screen using the parental adenocarcinoma cell KB-3-1; further: nearly all actives have a fitted effect of over 60% in size
Details: KB-3-1 viability, CellTiter-Glo ATP luminescence, 72 h; activity change, negative = cytotoxic: at 46.1 µM (top of the series)
Outline: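 72 h, 37 °C compound treatment of KB-3-1 parental cells; CellTiter-Glo added, 10 min, luminescence read. Data corrected against DMSO-only plates and normalized before curve fitting.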
On the % scale 0 is the no-effect control and ±100 the full control effect; potency means the concentration at half of the fitted maximal effect.

| SMILES | Potency | activity change, negative = cytotoxic |
| --- | --- | --- |
| CCOc1ccc(Br)cc1C1C(C(=O)OC)=C(N)Oc2cc(N(C)C)ccc21 (stereo not drawn) | inconclusive: 23.1 µM [cytotoxic, single point] |  |
| COc1ccc(Nc2nc(NCCO)nc(N3CCCC3)n2)cc1 |  | inactive: 0% |
| COc1ccc(C(=O)NCc2cc(C)nc3ccccc23)cc1 | active: 18.4 µM |  |
| Cc1ccc2c(=O)cc(C(=O)Nc3ccc(S(=O)(=O)N(C)Cc4ccccc4)cc3)oc2c1 |  | inactive: 4.07% |
| CC1(CCc2ccccc2)NC(=O)N(CC(=O)Nc2ccc(S(N)(=O)=O)cc2)C1=O (stereo not drawn) |  | inactive: 1.83% |
| CCC1=Nc2cc(C(=O)NCc3cccnc3)ccc2Sc2ccc(C)cc21 | inconclusive: 7.31 µM [cytotoxic, partial curve, poor fit] |  |
| CCN(C(=O)CSc1nc2n[nH]c(C)c2c(=N)n1-c1ccc(Cl)c(C)c1)c1cccc(C)c1 | inconclusive: 29.1 µM [cytotoxic, single point] |  |
| CC1(C)Cc2ccccc2C(NNC(=O)c2ccccn2)=N1 | inconclusive: 29.1 µM [cytotoxic, single point] |  |
| COC(=O)[C@H](C(C)C)N(Cc1ccccc1)S(=O)(=O)CCN1CCN(c2ccccc2)CC1 | inconclusive: 32.6 µM [cytotoxic, single point] |  |
| CCOc1cccc(C2CC(=O)Nc3cc(OC)c(OC)cc32)c1 (stereo not drawn) |  | inactive: 1.62% |
| CCOC(=O)C1CCCN(CCC(=O)Nc2cccc(C)c2)C1 (stereo not drawn) | inconclusive: 29.1 µM [rising, single point] |  |
| Cc1sc(NC(=O)CN2CCOCC2)nc1-c1ccc2c(c1)CCN2S(=O)(=O)c1ccccc1 | inconclusive: 29.1 µM [cytotoxic, single point] |  |
| O=C(Nc1ccc(Cl)cc1)N1CCN(c2ccc3nnc(-c4ccccc4)n3n2)CC1 |  | inconclusive: -48.8% |
| O=C(Nc1cccc(Br)c1)c1ccc(Cl)c(S(=O)(=O)N2CCOCC2)c1 | inconclusive: 20.6 µM [cytotoxic, single point] |  |
| Cc1cccc2c1Sc1ccc(Cl)cc1CC2N1CCNCC1 (stereo not drawn) | inconclusive: 25.9 µM [cytotoxic, single point] |  |
| O=C(C1CCC(Cn2c(=O)c3sccc3n(Cc3ccccc3F)c2=O)CC1)N1CCCCC1 (stereo not drawn) | inconclusive: 20.6 µM [cytotoxic, single point] |  |
| CCOC(=O)C1=CCN(S(=O)(=O)c2ccccc2C)C1c1ccc(Cl)c(Cl)c1 (stereo not drawn) | inconclusive: 29.1 µM [cytotoxic, single point] |  |
| S=C(NCc1ccccc1)Nc1ccncc1 | inconclusive: 23.1 µM [cytotoxic, partial curve, poor fit] |  |
| CC(OC(=O)c1ccccc1NS(=O)(=O)c1cccc(C(F)(F)F)c1)C(=O)N(C)Cc1ccccc1 (stereo not drawn) | inconclusive: 9.2 µM [cytotoxic, partial curve, poor fit] |  |
| Cc1ccccc1CCNC(=O)c1ccc(Cl)c(S(=O)(=O)N2CC(C)OC(C)C2)c1 (stereo not drawn) | active: 5.17 µM |  |
| O=C(N/N=C/c1sc(N2CCCCC2)nc1-c1cccs1)c1cccnc1 | inconclusive: 8.2 µM [cytotoxic, partial curve, poor fit] |  |
| CC(C)c1ccc(S(=O)(=O)N2CCN(C(=O)c3cccc(S(=O)(=O)N4CCOCC4)c3)CC2)cc1 | inconclusive: 20.6 µM [cytotoxic, single point] |  |
| COc1cccc(Cn2cccc(NC(=O)Nc3ccccc3C)c2=O)c1 | inconclusive: 9.2 µM [cytotoxic, partial curve] |  |

Quoted at random: 2 compounds from above.

| SMILES | Potency | activity change, negative = cytotoxic |
| --- | --- | --- |
| Cc1ccccc1CCNC(=O)c1ccc(Cl)c(S(=O)(=O)N2CC(C)OC(C)C2)c1 (stereo not drawn) | active: 5.17 µM |  |
| Cc1ccc2c(=O)cc(C(=O)Nc3ccc(S(=O)(=O)N(C)Cc4ccccc4)cc3)oc2c1 |  | inactive: 4.07% |

(cont.)

| SMILES | Potency | activity change, negative = cytotoxic |
| --- | --- | --- |
| CCOC(=O)c1sc(NC(=O)Nc2ccccc2)cc1C | inconclusive: 29.1 µM [cytotoxic, partial curve, poor fit] |  |
| CC(C)NC(=O)C1CCN(C(=O)c2cc3sccc3n2Cc2ccc(Cl)cc2)CC1 | inconclusive: 6.51 µM [cytotoxic, full curve] |  |
| COc1ccc(CCNC2=C(Cl)C(=O)N(CCc3ccc(OC)c(OC)c3)C2=O)cc1OC | inconclusive: 29.1 µM [cytotoxic, single point] |  |
| CCCCn1c(N)c(C(=S)NC(=O)CC(C)(C)C)c(=O)n(C)c1=O | inconclusive: 29.1 µM [cytotoxic, single point] |  |
| CCOC(=O)N1CCN(C(=O)/C=C/c2cccc([N+](=O)[O-])c2)CC1 |  | inactive: 20.8% |
| COc1ccc(/C=N/NC(=O)c2ccccc2NC(=O)c2ccco2)c(OC)c1 |  | inactive: -4.31% |
| CCN(CC)C(=O)c1[nH]cnc1C(=O)Nc1ccccc1F |  | inactive: 0.128% |
| CC(=O)Oc1ccc(/C=C2\N=C(C3CCCCC3)OC2=O)cc1 | inconclusive: 20.6 µM [rising, single point] |  |
| Cc1nc(SCC(=O)N2CCNC2=O)c(C#N)c(C)c1C | inconclusive: 14.6 µM [rising, partial curve, poor fit] |  |
| c1ccc(N=Nc2ccc(C3=NCCO3)cc2)cc1 |  | inactive: -14.4% |
| CCN(CC)CCSc1nnc2c3cc(F)ccc3n(C)c2n1 |  | inactive: -25.4% |
| O=C(COc1ccc(Cl)cc1[N+](=O)[O-])N/N=C/c1cccs1 |  | inactive: 1.27% |
| Cc1ccc(S(=O)(=O)N(C)C)cc1NC(=S)NC(C)CCCC(C)C (stereo not drawn) | inconclusive: 23.1 µM [cytotoxic, single point] |  |
| CCc1ccc(-c2cc(C(=O)N3N=C(C(F)F)CC3(O)C(F)F)c3ccccc3n2)cc1 (stereo not drawn) | inconclusive: 29.1 µM [cytotoxic, single point] |  |
| O=C1[C@@H](Oc2ccccc2)[C@@H](c2ccccc2)N1c1cccnc1 |  | inactive: 0% |
| O=C(NC1CCCCC1)c1cc2ccccc2cc1O | inconclusive: 29.1 µM [cytotoxic, single point] |  |
| Cc1ccc(C)c2c(/C=C/c3ccc(N(C)C)cc3)ccnc12 | inconclusive: 0.0731 µM [cytotoxic, full curve, poor fit] |  |
| Cc1ccc(-c2nc3cccnc3o2)cc1NC(=O)COc1ccc(C(C)(C)C)cc1 | inconclusive: 20.6 µM [cytotoxic, single point] |  |
| COC(=O)C(O)(CC(=O)Nc1ccc(C)c(F)c1)C(F)(F)F (stereo not drawn) | inconclusive: 29.1 µM [cytotoxic, single point] |  |
| COc1ccccc1C(c1nnnn1Cc1ccco1)N1CCN(c2cccc(C)c2C)CC1 (stereo not drawn) | inconclusive: 29.1 µM [cytotoxic, single point] |  |
| CCCCNC(=O)CN1CCN(Cc2ccc3cc(OC)ccc3c2)CC1 | inconclusive: 25.9 µM [cytotoxic, partial curve, poor fit] |  |
| CC(C)C[C@H]1CN(CCCC[C@H]2CNC(=O)C(=O)N2CCC2CCCCC2)C(=O)C(=O)N1CCC1CCCCC1 | inconclusive: 25.9 µM [cytotoxic, single point] |  |
| Cc1ccc(NC(c2ccc(Cl)cc2)c2nnc(-c3cccc(F)c3)o2)cc1C (stereo not drawn) |  | inactive: 9.21% |

| SMILES | Potency | activity change, negative = cytotoxic |
| --- | --- | --- |
| O=C(OCc1ccc(Br)cc1)c1cnc(Cl)c(Cl)c1 | inconclusive: 14.6 µM [cytotoxic, partial curve, poor fit] |  |
| Cc1sc(NC(=O)CS(=O)(=O)c2ccccc2)c(C#N)c1C |  | inactive: -5.58% |
| Cc1ccc(NC(=O)c2ccccc2NS(=O)(=O)c2ccc(Cl)s2)cc1 | active: 10.3 µM |  |
| CCOc1ccc(-c2cc(NC(=O)c3c(F)cccc3F)c(C(=O)O)s2)cc1 |  | inconclusive: -44.5% |
| O=C(Nc1ncccc1O)c1ccc(C(=O)c2ccccc2)cc1 | inconclusive: 23.1 µM [cytotoxic, partial curve, poor fit] |  |
| COc1cc(C(C(=O)NC2CCCCC2)N(C(=O)c2snc(C(N)=O)c2N)c2ccc(C)cc2)ccc1O (stereo not drawn) | inconclusive: 29.1 µM [cytotoxic, single point] |  |
| O=S(=O)(NCC(Nc1ccc(Cl)cc1)c1ccccc1)c1ccccc1 (stereo not drawn) | inconclusive: 23.1 µM [cytotoxic, single point] |  |
| COc1cc(NC(=O)Nc2ccccc2)c(OC)cc1NC(=O)CN1CCCCC1 | inconclusive: 18.4 µM [cytotoxic, single point] |  |
| COC(=O)/C=C/COc1ccccc1[N+](=O)[O-] | inconclusive: 29.1 µM [cytotoxic, single point] |  |
| COc1ccc(C(=O)NC2CCCCC2)cc1S(=O)(=O)N1CCCC1 | inconclusive: 7.31 µM [rising, partial curve, poor fit] |  |
| CC1(C)CC(=O)C2=C(C1)c1c(ccc3ccccc13)NC2c1ccc(Br)o1 (stereo not drawn) |  | inactive: 0% |
| CCC(=O)Oc1ccc2ccccc2c1CNC(=O)c1ccccc1 | inconclusive: 25.9 µM [cytotoxic, single point] |  |
| O=C(NC(=S)NNC(=O)c1cccs1)c1ccccc1 | inconclusive: 29.1 µM [cytotoxic, partial curve, poor fit] |  |
| Cc1ccc2c(CC(=O)NCc3ccco3)coc2c1C | active: 7.31 µM |  |
| O=C(Cn1c(SCC(=O)N2CCc3ccccc32)nc2ccccc21)NC1CCCC1 |  | inconclusive: -38.8% [cytotoxic] |
| CCCCCCCCCn1c2c(c(=N)c3c1CCC3)CCC2 | active: 1.03 µM |  |
| COc1cccc(Nc2nc3cc(Cl)c(Cl)cc3nc2-n2nc(C)cc2C)c1 |  | inactive: 4.17% |
| CC1CCN(c2oc(/C=C/c3ccc(F)cc3)nc2C#N)CC1 |  | inactive: 4.39% |
| CCCN1Cc2cccc(C(=O)Nc3ccc(S(=O)(=O)N4CCCCCC4)cc3)c2C1=O | inconclusive: 1.46 µM [rising, single point] |  |
| CCCOc1ccc(C(=O)Nc2nc(C)c(Cc3ccc4c(c3)OCO4)s2)cc1 |  | inconclusive: -60.3% |
| Cc1ccc(-c2csc(NC(=O)CSc3nc4ccccc4c(=O)n3CCCN(C)C)n2)cc1 | inconclusive: 29.1 µM [cytotoxic, single point] |  |
| OC1(c2cccc(C(F)(F)F)c2)CCN(c2ncnc3c2[nH]c2ccccc23)CC1 | inconclusive: 29.1 µM [cytotoxic, single point] |  |

Reformatted as tab-separated lines: entries from further up.
SMILES	Potency	activity change, negative = cytotoxic
COc1ccc(Nc2nc(NCCO)nc(N3CCCC3)n2)cc1		inactive: 0%
COc1ccc(C(=O)NCc2cc(C)nc3ccccc23)cc1	active: 18.4 µM	
